The values below come from patent publication US6574495B1, “Para-hydrogen labelled agents and their use in magnetic resonance imaging” (Amersham Health AS, priority 1997, dated 2003).

The data set can be described thus: Para-hydrogen hydrogenation with homogeneous rhodium catalyst, NMR enhancement effect (Example 2). Conditions: para-hydrogen and homogeneous rhodium catalyst, about 20 seconds.

`C#Cc1ccccc1` [Ph—C≡CH]: the “^1H enhancement” value is given as “about 200”. As to `CCOC(=O)C#CC(=O)OCC` [EtOOC—C≡C—COOEt], the “^13C enhancement” value (cis C═C product) is recorded as ~500.
